B1: Tb-PBP(Q201C)-Fl labeled with 7 parts Tb chelate: E. coli phosphate binding protein mutant Q201C labeled with fluorescein and 7 parts Tb chelate (protein, UniProt P0AG82 26-346, looked up, variant Q201C)
Phosphate-binding protein PstS: EASLTGAGATFPAPVYAKWADTYQKETGNKVNYQGIGSSGGVKQIIANTVDFGASDAPLSDEKLAQEGLFQFPTVIGGVVLAVNIPGLKSGELVLDGKTLGDIYLGKIKKWDDEAIAKLNPGLKLPSQNIAVVRRADGSGTSFVFTSYLAKVNEEWKNNVGTGSTVKWPIGLGGKGNDGIAAFVQRLPGAIGYVEYAYAKCNNLAYTKLISADGKPVSPTEENFANAAKGADWSKTFAQDLTNQKGEDAWPITSTTFILIHKDQKKPEQGTEVLKFFDWAYKTGAKQANDLDYASLPDSVVEQVRAAWKTNIKDSSGKPLY
modifications: fluorescein; Tb chelate (7 parts)
B2: Tb-PBP(Q201C)-Fl labeled with 10 parts Tb chelate: E. coli phosphate binding protein mutant Q201C labeled with fluorescein and 10 parts Tb chelate (protein, UniProt P0AG82 26-346, looked up, variant Q201C)
Phosphate-binding protein PstS: EASLTGAGATFPAPVYAKWADTYQKETGNKVNYQGIGSSGGVKQIIANTVDFGASDAPLSDEKLAQEGLFQFPTVIGGVVLAVNIPGLKSGELVLDGKTLGDIYLGKIKKWDDEAIAKLNPGLKLPSQNIAVVRRADGSGTSFVFTSYLAKVNEEWKNNVGTGSTVKWPIGLGGKGNDGIAAFVQRLPGAIGYVEYAYAKCNNLAYTKLISADGKPVSPTEENFANAAKGADWSKTFAQDLTNQKGEDAWPITSTTFILIHKDQKKPEQGTEVLKFFDWAYKTGAKQANDLDYASLPDSVVEQVRAAWKTNIKDSSGKPLY
modifications: fluorescein; Tb chelate (10 parts)
B3: Tb-PBP(Q201C)-Fl labeled with 20 parts Tb chelate: E. coli phosphate binding protein mutant Q201C labeled with fluorescein and 20 parts Tb chelate (protein, UniProt P0AG82 26-346, looked up, variant Q201C)
Phosphate-binding protein PstS: EASLTGAGATFPAPVYAKWADTYQKETGNKVNYQGIGSSGGVKQIIANTVDFGASDAPLSDEKLAQEGLFQFPTVIGGVVLAVNIPGLKSGELVLDGKTLGDIYLGKIKKWDDEAIAKLNPGLKLPSQNIAVVRRADGSGTSFVFTSYLAKVNEEWKNNVGTGSTVKWPIGLGGKGNDGIAAFVQRLPGAIGYVEYAYAKCNNLAYTKLISADGKPVSPTEENFANAAKGADWSKTFAQDLTNQKGEDAWPITSTTFILIHKDQKKPEQGTEVLKFFDWAYKTGAKQANDLDYASLPDSVVEQVRAAWKTNIKDSSGKPLY
modifications: fluorescein; Tb chelate (20 parts)
B4: Tb-PBP(Q201C)-Fl labeled with 3 parts Tb chelate: E. coli phosphate binding protein mutant Q201C labeled with fluorescein and 3 parts Tb chelate (protein, UniProt P0AG82 26-346, looked up, variant Q201C)
Phosphate-binding protein PstS: EASLTGAGATFPAPVYAKWADTYQKETGNKVNYQGIGSSGGVKQIIANTVDFGASDAPLSDEKLAQEGLFQFPTVIGGVVLAVNIPGLKSGELVLDGKTLGDIYLGKIKKWDDEAIAKLNPGLKLPSQNIAVVRRADGSGTSFVFTSYLAKVNEEWKNNVGTGSTVKWPIGLGGKGNDGIAAFVQRLPGAIGYVEYAYAKCNNLAYTKLISADGKPVSPTEENFANAAKGADWSKTFAQDLTNQKGEDAWPITSTTFILIHKDQKKPEQGTEVLKFFDWAYKTGAKQANDLDYASLPDSVVEQVRAAWKTNIKDSSGKPLY
modifications: fluorescein; Tb chelate (3 parts)

Test: TR-FRET assay of Tb-PBP(Q201C)-Fl with phosphate or Phosphate Mop
Format: binding
Details: for Emission ratio with phosphate: 100 nM sensor added to 200 uM phosphate; for Emission ratio with phosphate / Emission ratio with Mop: excited at 340 nm, emission at 520 nm and 495 nm; for Emission ratio with Mop: 100 nM sensor added to Phosphate Mop (0.8 mM 7-MEG, 4 U/mL PNPase, 1 mM MgCl2)

Molecule | Fold-change in signal (emission ratio with phosphate/ratio with Mop) | Emission ratio with phosphate | Emission ratio with Mop
B1 | 2.77 | .78 | .28
B2 | 2.65 | .83 | .31
B3 | 2.48 | .85 | .34
B4 | 3.06 | .72 | .23

Source: patent US8409814B2, “Sensor proteins and assay methods” (Life Technologies Corporation, priority 2006, dated 2013)
